Laboratory results as given in PMC5647368.

Target: Flag-tagged p65/RelA truncation D2 (TAD domain)
Test: co-IP; extracts of HEK293T cells co-transfected with two tagged constructs, harvested 24 h after transfection; immunoprecipitation (anti-Flag in Fig. 5D and 5F) and immunoblot for the other tag; beads washed six times with low-salt lysis buffer (50 mM Hepes pH 7.5, 150 mM NaCl, 1 mM EDTA, 1.5 mM MgCl2, 10% glycerol, 1% Triton X-100)

- binding: no binding
B1: Myc-tagged LRRC25 (protein, UniProt Q8N386 21-305)
chain: LEPSCTVSSADVDWNAEFSATCLNFSGLSLSLPHNQSLRASNVILLDLSGNGLRELPVTFFAHLQKLEVLNVLRNPLSRVDGALAARCDLDLQADCNCALESWHDIRRDNCSGQKPLLCWDTTSSQHNLSAFLEVSCAPGLASATIGAVVVSGCLLLGLAIAGPVLAWRLWRCRVARSRELNKPWAAQDGPKPGLGLQPRYGSRSAPKPQVAVPSCPSTPDYENMFVGQPAAEHQWDEQGAHPSEDNDFYINYKDIDLASQPVYCNLQSLGQAPMDEEEYVIPGH

These are yes or no findings as the source states them, for the method shown. Binding seen in cells or lysates may run through a third protein. Where a sequence is shown, tags or fusion partners need not be part of it.
